No constants are given. Whether binding was seen depends on the method and setting. Binding seen in cells or lysates may run through a third protein. Some results given as binding are weak or reduced against the parent protein; the word gives no strength.

Amino acid sequences for entries named in this document (tags omitted).
UniProt P49950: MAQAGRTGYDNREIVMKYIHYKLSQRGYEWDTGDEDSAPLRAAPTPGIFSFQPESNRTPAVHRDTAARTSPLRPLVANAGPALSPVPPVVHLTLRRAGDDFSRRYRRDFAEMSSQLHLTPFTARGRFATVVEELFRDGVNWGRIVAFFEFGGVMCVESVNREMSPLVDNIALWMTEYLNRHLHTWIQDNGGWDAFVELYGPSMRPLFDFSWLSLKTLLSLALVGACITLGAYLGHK
UniProt Q63690: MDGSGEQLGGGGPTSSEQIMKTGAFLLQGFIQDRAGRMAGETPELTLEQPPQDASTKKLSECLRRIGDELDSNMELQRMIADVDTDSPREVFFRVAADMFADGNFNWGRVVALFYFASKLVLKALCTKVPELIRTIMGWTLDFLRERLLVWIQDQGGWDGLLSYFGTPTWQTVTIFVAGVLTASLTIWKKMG

Assay [1] addresses T1, Bad (rat (endogenous in Sprague-Dawley rat hippocampus)) (UniProt O35147).
T1 sequence: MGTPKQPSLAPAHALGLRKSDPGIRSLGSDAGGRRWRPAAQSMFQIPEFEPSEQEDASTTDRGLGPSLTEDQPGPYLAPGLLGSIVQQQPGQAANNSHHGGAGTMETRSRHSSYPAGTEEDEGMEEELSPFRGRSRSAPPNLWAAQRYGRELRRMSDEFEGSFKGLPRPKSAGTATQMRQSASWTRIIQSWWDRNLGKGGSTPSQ
In words: co-IP; 500 ug total protein of rat ipsilateral hippocampus, day 3 after injury; precipitated with anti-Bcl-2 or anti-Bad and protein A/G agarose overnight at 4°C, rinsed four times with NP-40 buffer, western blot for Bcl-2, Bax and Bad; IgG as negative control; animals: sham, CCI, CCI + CORT 0.3, 3 or 30 mg/kg, CORT + SPIRO, CORT + RU486. (A western blot detects proteins with antibodies after separation by electrophoresis.)

Assay [2] addresses Bcl-2 (rat (endogenous in Sprague-Dawley rat hippocampus)) (UniProt P49950). The description is as above.

In the case of Bcl-2 (from UniProt P49950 1-236), the binding result in assay [1] is on record as “binds”.

Consider Bax (from UniProt Q63690 1-192), for which the binding entry in assay [2] is recorded as “binds”.
